Measurements reported in PubChem BioAssay AID1053208 (Peter MacCallum Cancer Centre, 2014)

- Test: 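Find knock-downs that sensitise mouse osteosarcoma cells to doxorubicin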 (primary screen)
- System: mouse osteosarcoma cells, early-passage culture from an engineered mouse model of fibroblastic bone tumour
- Reagent: siRNA pool against mouse genes, 40 nM
- Duration: about 120 h (48 h before drug, then 72 h with drug)
- Treatment: doxorubicin 100 nM for 72 h, roughly 30-40% inhibitory dose
- Measurement: 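Luminescent ATP signal taken as viability with or without 100 nM doxorubicin for 72 h; mean of two wells set against non-targeting siRNA and turned into robust z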
- Reading the numbers: viability z-score with doxorubicin: higher = more viable cells under doxorubicin; viability z-score without drug: higher = more viable cells with knock-down alone
- Hit rule: 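Called active if knock-down leaves viability unchanged without drug (z within -2 to 2) but lowers it with doxorubicin (z at or under -2)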
This is one part, drawn at random, of about 17,000 reagents. 788 of them (4.7%) count as active. 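Calls rest on z-score classes alone; an extra cut-off of viability at most 70% of control was not applied to them.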 Not all columns of the deposit are shown. Reagent sequences are not shown.

Gene | combined z-score class | viability z-score with doxorubicin | viability z-score without drug | call
Parp9 (poly (ADP-ribose) polymerase family, member 9) | no change with or without drug | -0.34 | 0.84 | inactive
Cdkl3 (cyclin dependent kinase like 3) | low cell count with doxorubicin only | -2.47 | -1.52 | active
B9d1 (B9 protein domain 1) | low cell count with doxorubicin only | -3.04 | -0.51 | active
Zim1 (zinc finger, imprinted 1) | low cell count with doxorubicin only | -2.14 | 1.35 | active
D7Ertd413e (DNA segment, Chr 7, ERATO Doi 413, expressed) | no change with or without drug | 1.12 | -1.35 | inactive
Gucy2e (guanylate cyclase 2e) | no change with or without drug | 1.12 | 1.52 | inactive
Amigo3 (adhesion molecule with Ig like domain 3) | no change with or without drug | 0 | 0.34 | inactive
Arhgef1 (Rho guanine nucleotide exchange factor 1) | no change with or without drug | -0.9 | 0.84 | inactive
Alx1 (ALX homeobox 1) | no change with or without drug | 0.45 | 1.01 | inactive
Elavl1 (ELAV like RNA binding protein 1) | no change with or without drug | 0.45 | 0.84 | inactive
Or10d5 (olfactory receptor family 10 subfamily D member 5) | no change with or without drug | -1.91 | 0.34 | inactive
Igfbp7 (insulin-like growth factor binding protein 7) | no change with or without drug | 0.11 | -0.17 | inactive
Afap1l1 (actin filament associated protein 1-like 1) | low cell count with doxorubicin only | -4.38 | 0.67 | active
Rpl3 (ribosomal protein L3) | low cell count with and without drug | -4.83 | -4.89 | inactive
Adh7 (alcohol dehydrogenase 7 (class IV), mu or sigma polypeptide) | no change with or without drug | 0.79 | 1.18 | inactive
Tpte (transmembrane phosphatase with tensin homology) | no change with or without drug | -0.22 | 0.17 | inactive
Cyp4b1 (cytochrome P450, family 4, subfamily b, polypeptide 1) | no change with or without drug | 0.9 | 0.17 | inactive
Nrk (Nik related kinase) | no change with or without drug | 0.67 | 0.51 | inactive
Chd1 (chromodomain helicase DNA binding protein 1) | no change with or without drug | -1.35 | -0.67 | inactive
Or1e29 (olfactory receptor family 1 subfamily E member 29) | no change with or without drug | -0.45 | 0.17 | inactive
Ensa (endosulfine alpha) | no change with or without drug | 0.45 | -0.17 | inactive
Paqr8 (progestin and adipoQ receptor family member VIII) | no change with or without drug | 0 | -0.17 | inactive
Klk1b24 (kallikrein 1-related peptidase b24) | no change with or without drug | 1.46 | 0.84 | inactive
Tdp2 (tyrosyl-DNA phosphodiesterase 2) | no change with or without drug | 1.35 | 1.01 | inactive
Or1f12 (olfactory receptor family 1 subfamily F member 12) | low cell count with and without drug | -2.02 | -3.2 | inactive
Uox (urate oxidase) | no change with or without drug | -1.57 | -0.17 | inactive
Cox6b2 (cytochrome c oxidase subunit 6B2) | no change with or without drug | -0.9 | -1.18 | inactive
Cpa5 (carboxypeptidase A5) | no change with or without drug | -0.9 | -0.67 | inactive
Elob (elongin B) | no change with or without drug | -1.8 | 1.18 | inactive
Evx1 (even-skipped homeobox 1) | no change with or without drug | 0 | 1.52 | inactive
Cnn1 (calponin 1) | low cell count with doxorubicin only | -3.04 | -0.67 | active
Zfp40 (zinc finger protein 40) | low cell count with and without drug | -2.47 | -2.53 | inactive
Klhl18 (kelch-like 18) | no change with or without drug | 1.12 | 0.51 | inactive
Mycbp (MYC binding protein) | no change with or without drug | -0.67 | -1.18 | inactive

Entries above whose target name starts with K or k:
Gene | combined z-score class | viability z-score with doxorubicin | viability z-score without drug | call
Klk1b24 (kallikrein 1-related peptidase b24) | no change with or without drug | 1.46 | 0.84 | inactive
Klhl18 (kelch-like 18) | no change with or without drug | 1.12 | 0.51 | inactive
